From US20260193315A1 (FBD BIOLOGICS, published 2026) come the findings set out here.

Amino acid sequences for entries named in this document (tags omitted). Residues count along the entry.
UniProt Q07011, residues 24-186: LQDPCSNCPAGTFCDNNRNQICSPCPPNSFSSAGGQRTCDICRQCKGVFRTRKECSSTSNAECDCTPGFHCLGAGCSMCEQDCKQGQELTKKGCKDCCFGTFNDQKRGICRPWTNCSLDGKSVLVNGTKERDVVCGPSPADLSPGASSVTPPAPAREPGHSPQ

The chains are these.
B1: 1D2 (ligand)
4-1BBL variant: ACPWAVSGARASPGSAASPRLREGPELSPDDPAGLLDLRQGMFAQLVAQNVLLIDGPLSWYEDPGLAGVSLTGGLSYKEDTKELVVAKAGVYYVFFQLELRRVVAGTGSGSVSLALHLQPLRSAAGAAALALTVDLPPASSEARNSAFGFQGRLLHLSAGQRLGVHLHTEARARHALQLTQGATVLGLFRVTPEIPAGLPSPRSE
notes: also called 4-1BBL variant 1D2 (phagemid clone, bacterial supernatant)
B2: 8B10 (ligand)
4-1BBL variant: ACPWAVSGARASPGSAASPRLREGPELSPDDPAGLLDLRQGMFAQLVAQNVLLIDGPLSWYTDPGLAGVSLTGGLSYKEDTKELVVAKAGVYYVFFQLELRRVVAGMGSGSVSLALHLQPLRSAAGAAALALTVDLPPASSEARNSAFGFQGRLLHLSAGQRLGVHLHTEARARHSWQLTQGATVLGLFRVTPEIPAGLPSPRSE
notes: also called 4-1BBL variant 8B10 (phagemid clone, bacterial supernatant)
B3: 5D9 (ligand)
4-1BBL variant: ACPWAVSGARASPGSAASPRLREGPELSPDDPAGLLDLRQGMFAQLVAQNVLLIDGPLSFYSDPGLAGVSLTGGLSYKEDTKELVVAKAGVYYVFFQLELRRVVAGTGSGSVSLALHLQPLRSAAGAAALALTVDLPPASSEARNSAFGFQGRLLHLSAGQRLGVHLHTEARARHAWQMTQGATVLGLFRVTPEIPAGLPSPRSE
notes: also called 4-1BBL variant 5D9 (phagemid clone, bacterial supernatant)
B4: 4E10 (ligand)
4-1BBL variant: ACPWAVSGARASPGSAASPRLREGPELSPDDPAGLLDLRQGMFAQLVAQNVLLIDGPLSWYPDPGLAGVSLTGGLSYKEDTKELVVAKAGVYYVFFQLELRRVVAREGSGSVSLALHLQPLRSAAGAAALALTVDLPPASSEARNSAFGFQGRLLHLSAGQRLGVHLHTEARARHAMQLTQGATVLGLFRVTPEIPAGLPSPRSE
notes: also called 4-1BBL variant 4E10 (phagemid clone, bacterial supernatant)

Results are given in words; binding and its absence hold for the method and conditions named. Some entries that bind do so weakly or less than the wild type.

This assay has as its target 4-1BB (coated on ELISA plate) (UniProt Q07011). As to the kind of experiment: ELISA on coated 4-1BB, class against wild type. In general terms: ELISA stands for enzyme-linked immunosorbent assay.
As for B1, the binding result is on record as “binds”.

B2: the binding result is given as “binds”.

For B3, the binding result is listed as “binds”.

B4: the binding result is recorded as “binds”.
